Values joined by “and” are separate entries in the source; they are usually repeats but may differ in a detail not shown here. Equal entries are not always repeated.
Tests used:
Assay type in all cases: cell-based, E. coli XL10-Gold
[1] = test system: BjaRS107R (B0034|CTG) receiver cells; experiment: IV-HSL biosynthesis by BjaI in bulk CFPS reactions, quantified with receiver cells; settings: 80 µM IV-CoA, 300 µM SAM, 37 °C, 5 h
Experimental: We first validated bjaI expression using bulk CFPS reactions containing (^35S)-methionine to visualize the newly synthesized protein. The full-length BjaI protein (25 kDa) was successfully translated, and its expression was not influenced by the presence of SAM and IV-CoA (Fig. 4b). To establish whether the BjaI was enzymatically active, CFPS reactions containing 80 µM IV-CoA and 300 µM SAM were incubated at 37 °C for 5 h, and then serially diluted and incubated with BjaRS107R (B0034|CTG) receiver cells. Indeed, IV-HSL was successfully synthesized within the CFPS reactions as the reaction mixture containing the complete set of components (bjaI DNA + SAM + IV-CoA) fully activated gfp expression in the receivers, while no fluorescence output was observed from CFPS reactions containing SAM and IV-CoA, but without bjaI DNA template (Fig. 4c,d). […] Similarly, on transferring this system inside GUVs, BjaI-producing synthetic cells also synthesized sufficient IV-HSL to fully activate gfp expression in BjaRS107R (B0033|ATG) receiver cells. […]
In total, 3 µl CFPS reactions were prepared using PURExpress with 0.8 U µl^−1 murine RNase inhibitor, 5 ng µl^−1 linear bjaI DNA template and 300 µM SAM and 80 µM IV-CoA, as indicated. […] OD600 and fluorescence were measured using a Tecan infinite M1000 plate reader (Ex, 488 nm; Em, 510 nm; bandwidth, 5 nm; z position, 23,179 µm and gain, 101).

[2] = test system: BjaRS107R (B0033|ATG) receiver cells; experiment: IV-HSL biosynthesis by BjaI-expressing synthetic cells (GUVs), quantified with receiver cells
[3] = test system: BjaRKO receiver cells (pSB1A3–bjaRKO–gfp); experiment: BjaR receiver cell AHSL dose-response (gfp reporter, plate reader)
Source text: (§1) Next, we set out to establish a unidirectional communication pathway by reconstituting the BjaI and BjaR QS machinery, separately, within synthetic cells and E. coli, respectively. As a starting point, IV-HSL-responsive receiver cells were created by transforming E. coli XL10-Gold cells with a reporter plasmid, pSB1A3–bjaR–gfp[28]. This plasmid contained a bjaR gene under the control of a constitutively active J23100 promoter and a gfp gene under the control of a pBjaR promoter. The pBjaR promoter was formed by substituting the lux-box of the pLux promoter with the BjaR-binding site (Supplementary Fig. 10). […] Although this reporter plasmid had been characterized previously, gfp expression was initiated with C4-HSL rather than the cognate ligand, IV-HSL. Thus, we first evaluated the dose–response relationship between synthetic IV-HSL (synthesis described in Methods) and GFP production by BjaR receiver cells. The cells were grown in M9 minimal media to an optical density at 600 nm (OD600) = 0.05, then transferred to a 96-well plate containing IV-HSL and incubated at 37 °C, 800 r.p.m., for 4 h. […] To elucidate the root cause of the high background fluorescence, a BjaRKO variant of the reporter plasmid was constructed. […] Therefore, the high OFF-state was attributed to BjaR-mediated transcription activation in the absence of IV-HSL, rather than host transcription factors recognizing the pBjaR promoter, or transcription factor independent gfp expression.
(§2) The BjaR reporter plasmids were retransformed into E. coli XL10-Gold cells for each experiment. A single colony was used to inoculate 5 ml LB + Amp media and incubated at 37 °C, 225 r.p.m. overnight. Overnight cultures were diluted 1/250 or 1/500 in 5 ml M9 minimal media + Amp and incubated at 37 °C, 225 r.p.m. for 3 h and 45 min (until OD600 = ~0.075). Cultures were diluted down to OD600 = 0.05 with M9 minimal media + Amp, and 200 µl was added to wells of a 96-well plate containing 1 µl IV-HSL dissolved in DMSO or 1 µl BjaI CFPS reactions (IV-HSL concentrations obtained from serial dilution from 63.2 µM to 632 pM; final DMSO concentration = 0.5%). Cells were incubated at 37 °C, 800 r.p.m., in a thermomixer with a heated lid for 4 h. Fluorescence and OD600 were measured in a Tecan M1000 infinite plate reader (excitation, 488 nm; emission, 510 nm; bandwidth, 5 nm; gain, 101 and z position, 21,311 µm). The dose–response curves were fitted to the function indicated by Eq. (1), where a = maximal fluorescence output, b = basal fluorescence output, X = concentration of AHSL, GFP = fluorescence at the given condition, EC50 = AHSL at 50% maximal fluorescence output and h = hill coefficient. EC50 and h were derived using the nonlinear regression model based on Eq. (1), in MATLAB. A summary of the dose–response data is available in Supplementary Table 1.1 GFP=b+a−b/1+10^logEC50−X×h

[4] = test system: BjaRWT (B0034|ATG) receiver cells (pSB1A3–bjaR–gfp); experiment: as above
Source text: as §1, §2

[5] = 0.5× PURExpress, without murine RNase inhibitor, 50 mM sucrose

CC(C)CC(=O)N[C@H]1CCOC1=O [IV-HSL, N-isovaleryl-L-homoserine lactone] was tested. Which “IV-HSL generated in bulk CFPS reactions” value [1] did it give?
The value was 17.9 ± 2.6 pmol/µL.

And the “IV-HSL concentration in bulk BjaI CFPS reaction” value ([1]; estimated from receiver cell fluorescence)?
Its value is 17.9 ± 2.6 µM.

What about the “IV-HSL produced by GUVs” value [2, 5] of the same compound?
Its value is 32.5 ± 13.6 nM.

What about the “IV-HSL produced per inner solution” value [2, 5] of the same compound?
Its value is 0.16 ± 0.068 pmol µl^−1 inner solution.

And the “IV-HSL generated by the GUVs” value ([2]; 1× PURExpress GUVs)?
The value was 2.28 ± 0.60 pmol/µL.

What about the “IV-HSL concentration in synthetic cell samples” value ([2]; 1× PURExpress GUVs, 25 µl samples) of the same compound?
Its value is 458.5 ± 119.6 nM.

What about the OD600 ([3]; Log([ASHL]) -6.5) of the same compound?
Its OD600 is 0.3306 and 0.3621 and 0.2891.

And the OD600 ([3]; Log([ASHL]) -7)?
The OD600 was 0.3381 and 0.3609 and 0.3016.

And the OD600 ([3]; Log([ASHL]) -7.5)?
Its OD600 is 0.3398 and 0.371 and 0.3048.

And the OD600 ([3]; Log([ASHL]) -8)?
Its OD600 is 0.362 and 0.2933 and 0.3353.

And the OD600 ([3]; Log([ASHL]) -8.5)?
The OD600 was 0.3639 and 0.2941 and 0.3444.

And the OD600 ([3]; Log([ASHL]) -9)?
The OD600 was 0.3486 and 0.2915 and 0.3248.

What about the OD600 ([3]; Log([ASHL]) -9.5) of the same compound?
The OD600 was 0.3475 and 0.2972 and 0.3208.

What about the OD600 ([3]; Log([ASHL]) -10) of the same compound?
The OD600 was 0.3471 and 0.28 and 0.3178.

What about the OD600 ([3]; Log([ASHL]) -10.5) of the same compound?
The OD600 was 0.3456 and 0.2865 and 0.316.

And the OD600 ([3]; Log([ASHL]) -11)?
Its OD600 is 0.3415 and 0.2834 and 0.3206.

What about the OD600 ([3]; Log([ASHL]) -11.5) of the same compound?
Its OD600 is 0.3371 and 0.3126 and 0.2784.

What about the OD600 ([4]; Log([ASHL]) -6.5) of the same compound?
The OD600 was 0.1407 and 0.1426 and 0.1342.

What about the OD600 ([4]; Log([ASHL]) -7) of the same compound?
Its OD600 is 0.1411 and 0.1451 and 0.131.

What about the OD600 ([4]; Log([ASHL]) -7.5) of the same compound?
Its OD600 is 0.1331 and 0.1386 and 0.1217.

And the OD600 ([4]; Log([ASHL]) -8)?
Its OD600 is 0.1336 and 0.1241 and 0.1283.

And the OD600 ([4]; Log([ASHL]) -8.5)?
Its OD600 is 0.1339 and 0.1207 and 0.1286.

What about the OD600 ([4]; Log([ASHL]) -9) of the same compound?
Its OD600 is 0.1331 and 0.1177 and 0.1275.

What about the OD600 ([4]; Log([ASHL]) -9.5) of the same compound?
Its OD600 is 0.1411 and 0.1167 and 0.1286.

And the OD600 ([4]; Log([ASHL]) -10)?
The OD600 was 0.1334 and 0.1176 and 0.1288.

And the OD600 ([4]; Log([ASHL]) -10.5)?
The OD600 was 0.1328 and 0.1169 and 0.1254.

And the OD600 ([4]; Log([ASHL]) -11)?
The OD600 was 0.1305 and 0.1181 and 0.12.

What about the OD600 ([4]; Log([ASHL]) -11.5) of the same compound?
The OD600 was 0.1288 and 0.108 and 0.1174.
